# Source: patent US9192164B2, “Membrane sterilization” (SABAN VENTURES PTY LIMITED, priority 2005, dated 2015)
# Read-outs that look alike come from different tables or passages of the source.
# Details: 45 °C
substance,measurement,setting,value
hydrogen peroxide [H2O2],Residual Peroxide,"Experiment A: 30% initial, 5 s on/15 s off, 0.081 g delivered, material ABS (10 cm^2)",2.0 μg/cm^2
same,Residual Peroxide,"Experiment A: 30% initial, 5 s on/15 s off, 0.081 g delivered, material Santoprene (10 cm^2), * below detection level of assay",0* μg/cm^2
same,Residual Peroxide,"Experiment A: 30% initial, 5 s on/15 s off, 0.081 g delivered, material Silicone (10 cm^2)",2.3 μg/cm^2
same,Residual Peroxide,"Experiment B: 30% initial, 8 s on/12 s off, 0.165 g delivered, material ABS (10 cm^2)",5.8 μg/cm^2
same,Residual Peroxide,"Experiment B: 30% initial, 8 s on/12 s off, 0.165 g delivered, material Santoprene (10 cm^2), * below detection level of assay",0.0* μg/cm^2
same,Residual Peroxide,"Experiment B: 30% initial, 8 s on/12 s off, 0.165 g delivered, material Silicone (10 cm^2)",4 μg/cm^2
same,Residual Peroxide,"Experiment B: 30% initial, 8 s on/12 s off, 0.165 g delivered, material Stainless steel (10 cm^2), * below detection level of assay",0.0* μg/cm^2
same,Residual Peroxide,"Experiment B: 30% initial, 8 s on/12 s off, 0.165 g delivered, material glass (10 cm^2), * below detection level of assay",0.0* μg/cm^2
